Test results reported in ChEMBL document CHEMBL1128130, “Hydroxamate inhibitors of human gelatinase B (92 kDa)” (Bioorg Med Chem Lett, 1995).
pKi: −log10 of the molar value.

By UniProt entry, the sequences of proteins in these tests, tags left out. Where a name states a change or a piece, a line headed by the entry shows the natural chain unless it says otherwise.
UniProt P22894: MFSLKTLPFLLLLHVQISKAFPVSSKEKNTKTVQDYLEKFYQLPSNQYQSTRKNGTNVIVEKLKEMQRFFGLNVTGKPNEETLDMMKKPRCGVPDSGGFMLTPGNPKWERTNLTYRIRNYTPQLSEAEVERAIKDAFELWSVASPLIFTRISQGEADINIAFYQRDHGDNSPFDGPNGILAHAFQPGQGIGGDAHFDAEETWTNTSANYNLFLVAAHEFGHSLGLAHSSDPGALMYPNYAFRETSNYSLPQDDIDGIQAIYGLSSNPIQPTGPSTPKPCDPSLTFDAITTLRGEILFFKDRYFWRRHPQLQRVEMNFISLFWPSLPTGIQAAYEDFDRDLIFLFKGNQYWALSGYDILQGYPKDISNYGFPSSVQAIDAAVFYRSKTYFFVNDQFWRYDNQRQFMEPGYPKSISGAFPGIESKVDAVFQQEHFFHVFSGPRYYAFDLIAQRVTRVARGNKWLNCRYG

Target: Neutrophil collagenase (Homo sapiens, UniProt P22894)

## CNC(=O)[C@H](Cc1ccccc1)NC(=O)[C@@H](CC(=O)NO)CC(C)C
  pKi: > 9.00
